Laboratory results: PubChem BioAssay AID1259279 (Sanger Institute, 2017)
Shown is a random part of 794 deposited reagents. 11 of them (1.4%) were called active. 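Calls reflect knock-down alone in the vehicle arm, not drug synergy.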 No viability above 1 is reported: the scale is capped. Not all columns of the deposit are shown. Reagent sequences are not shown. The record does not give: the amount of reagent, the time to read-out.

- Aim: 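Find kinases whose loss works with colorectal cancer drugs to kill cells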 (primary screen)
- Cells: LS180 human colorectal cancer cells
- Reagents: siRNA pool against human genes
- Conditions: anchor drug BYL719 at 1 µM, cetuximab at 5 µg/ml or trametinib at 10 nM, or DMSO vehicle only
- Measured: 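Viability as a fraction of non-targeting control and as a replicate-averaged robust z-score, with separate synergy scores for BYL719, cetuximab and trametinib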
- Direction: viability z-score, no drug: higher = more viable cells after knock-down; viability, no drug: higher = more viable cells
- Units: viability, no drug in fraction
- Call rule: 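a knock-down is called active, meaning essential, if its viability z-score in vehicle alone falls below -3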
- Calls: active = essential (knock-down alone cuts viability); inactive = no change without drug

AK5 [SID56478914]
- viability z-score, no drug: -1.42
- viability, no drug: 0.752
- Outcome: inactive

PIM3 [SID135625114]
- viability z-score, no drug: 0.86
- viability, no drug: 1
- Outcome: inactive

CDK17 [SID56478886]
- viability z-score, no drug: -0.197
- viability, no drug: 0.885
- Outcome: inactive

CHD9 [SID152154196]
- viability z-score, no drug: -0.661
- viability, no drug: 0.834
- Outcome: inactive

ITSN1 [SID135621555]
- viability z-score, no drug: -0.908
- viability, no drug: 0.807
- Outcome: inactive

DCLK3 [SID152149137]
- viability z-score, no drug: -0.356
- viability, no drug: 0.867
- Outcome: inactive

CDK1 [SID56478584]
- viability z-score, no drug: 0.515
- viability, no drug: 0.962
- Outcome: inactive

CDK5 [SID56478599]
- viability z-score, no drug: -0.754
- viability, no drug: 0.824
- Outcome: inactive

TWF1 [SID56478546]
- viability z-score, no drug: 0.86
- viability, no drug: 1
- Outcome: inactive

EFNA4 [SID134312013]
- viability z-score, no drug: -0.148
- viability, no drug: 0.89
- Outcome: inactive

PHKG1 [SID152147540]
- viability z-score, no drug: 0.86
- viability, no drug: 1
- Outcome: inactive

COASY [SID56479117]
- viability z-score, no drug: -2.8
- viability, no drug: 0.601
- Outcome: inactive

ADGRL2 [SID152152166]
- viability z-score, no drug: 0.86
- viability, no drug: 1
- Outcome: inactive

PRKX [SID152149946]
- viability z-score, no drug: 0.698
- viability, no drug: 0.982
- Outcome: inactive

PRPS2 [SID152153546]
- viability z-score, no drug: 0.86
- viability, no drug: 1
- Outcome: inactive

NUP98 [SID152147776]
- viability z-score, no drug: -1.65
- viability, no drug: 0.727
- Outcome: inactive

RBKS [SID56479147]
- viability z-score, no drug: -1.25
- viability, no drug: 0.77
- Outcome: inactive

LMTK3 [SID152150242]
- viability z-score, no drug: -0.993
- viability, no drug: 0.798
- Outcome: inactive

PRKCG [SID56478828]
- viability z-score, no drug: 0.3
- viability, no drug: 0.939
- Outcome: inactive

BRD4 [SID152154839]
- viability z-score, no drug: 0.693
- viability, no drug: 0.982
- Outcome: inactive

CUL1 [SID134310265]
- viability z-score, no drug: 0.0165
- viability, no drug: 0.908
- Outcome: inactive

ACVRL1 [SID152155046]
- viability z-score, no drug: 0.86
- viability, no drug: 1
- Outcome: inactive

EPHB3 [SID56478503]
- viability z-score, no drug: -0.364
- viability, no drug: 0.867
- Outcome: inactive

CDK7 [SID152150057]
- viability z-score, no drug: 0.106
- viability, no drug: 0.918
- Outcome: inactive

PRKACB [SID56478825]
- viability z-score, no drug: 0.86
- viability, no drug: 1
- Outcome: inactive

GUCY2EP [SID152152788]
- viability z-score, no drug: -0.532
- viability, no drug: 0.848
- Outcome: inactive

PKDCC [SID152147854]
- viability z-score, no drug: 0.86
- viability, no drug: 1
- Outcome: inactive

MUSK [SID56478536]
- viability z-score, no drug: -0.291
- viability, no drug: 0.874
- Outcome: inactive

Ordered by “viability, no drug” (ascending): 4 of the entries above
GUCY2EP [SID152152788]
- viability z-score, no drug: -0.532
- viability, no drug: 0.848
- Outcome: inactive

MUSK [SID56478536]
- viability z-score, no drug: -0.291
- viability, no drug: 0.874
- Outcome: inactive

PRKACB [SID56478825]
- viability z-score, no drug: 0.86
- viability, no drug: 1
- Outcome: inactive

PKDCC [SID152147854]
- viability z-score, no drug: 0.86
- viability, no drug: 1
- Outcome: inactive
